Reference: PubChem BioAssay AID652272 (Drosophila RNAi Screening Center, 2013)

- Test: 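Genome-wide knock-down search for components of Hedgehog signalling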 (primary screen)
- System: Drosophila clone 8 (Cl8) cells
- Reagent: long dsRNA against Drosophila genes
- Measurement: 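Firefly light from a Hedgehog-responsive ptc promoter reporter and Renilla reference light, both read on a plate reader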
- Reading the numbers: firefly Hh reporter signal: higher = more ptc reporter light; Renilla reference signal: higher = more Renilla control light
- Hit rule: 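Called a hit if the two-replicate mean z-score lies below -2 or above +3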
- Meaning of the calls: active = hit: reporter lowered or raised; inactive = not a hit
The screen tested about 21,000 reagents; this is a random part of those with a known target gene and a result. Over the whole deposit, 503 (2.4%) are marked active. 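Raw plate light values, not normalised; calls rest on replicate z-scores that were not deposited; hits include reporter decreases as well as increases.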 Reagents against one gene are numbered here. A plus sign joins genes that one reagent is predicted to hit. Not given: the amount of reagent, the time to read-out.

After knock-down of Pvf2 #1, the record shows firefly Hh reporter signal, replicate 1 = 5.38e5; firefly Hh reporter signal, replicate 2 = 1.02e5; Renilla reference signal, replicate 1 = 3768; Renilla reference signal, replicate 2 = 3768; inactive.
After knock-down of Pvf2 #2 the results were firefly Hh reporter signal, replicate 1 = 1.54e5; firefly Hh reporter signal, replicate 2 = 69175; Renilla reference signal, replicate 1 = 3879; Renilla reference signal, replicate 2 = 6185; inactive.
Knock-down of Atg10 + CG12822 came out at: firefly Hh reporter signal, replicate 1 = 71461; firefly Hh reporter signal, replicate 2 = 48528; Renilla reference signal, replicate 1 = 1852; Renilla reference signal, replicate 2 = 4392; inactive.
JhI-26 showed firefly Hh reporter signal, replicate 1 = 1.33e5; firefly Hh reporter signal, replicate 2 = 85130; Renilla reference signal, replicate 1 = 5832; Renilla reference signal, replicate 2 = 3539; inactive.
With knock-down of CG3748, the screen gave firefly Hh reporter signal, replicate 1 = 69336; firefly Hh reporter signal, replicate 2 = 44316; Renilla reference signal, replicate 1 = 1398; Renilla reference signal, replicate 2 = 4163; inactive.
Against CG10730 the deposit lists firefly Hh reporter signal, replicate 1 = 96864; firefly Hh reporter signal, replicate 2 = 67889; Renilla reference signal, replicate 1 = 2816; Renilla reference signal, replicate 2 = 5889; inactive.
Depletion of CG3635 came out at: firefly Hh reporter signal, replicate 1 = 68326; firefly Hh reporter signal, replicate 2 = 43050; Renilla reference signal, replicate 1 = 1900; Renilla reference signal, replicate 2 = 4004; inactive.
With knock-down of c12.1 the results were firefly Hh reporter signal, replicate 1 = 57098; firefly Hh reporter signal, replicate 2 = 1.37e5; Renilla reference signal, replicate 1 = 977; Renilla reference signal, replicate 2 = 7024; inactive.
Depletion of CG10550 resulted in: firefly Hh reporter signal, replicate 1 = 67860; firefly Hh reporter signal, replicate 2 = 1.22e5; Renilla reference signal, replicate 1 = 1552; Renilla reference signal, replicate 2 = 2899; inactive.
For CG17068, the values are firefly Hh reporter signal, replicate 1 = 1.50e5; firefly Hh reporter signal, replicate 2 = 1.79e5; Renilla reference signal, replicate 1 = 3250; Renilla reference signal, replicate 2 = 4148; inactive.
CG17192 showed firefly Hh reporter signal, replicate 1 = 1.16e5; firefly Hh reporter signal, replicate 2 = 1.33e5; Renilla reference signal, replicate 1 = 4067; Renilla reference signal, replicate 2 = 3908; inactive.
Against Ccp84Af, the entry reads firefly Hh reporter signal, replicate 1 = 78417; firefly Hh reporter signal, replicate 2 = 75725; Renilla reference signal, replicate 1 = 2544; Renilla reference signal, replicate 2 = 2345; inactive.

Reformatted: entries from further up
| gene | reagent no. | firefly Hh reporter signal, replicate 1 | firefly Hh reporter signal, replicate 2 | Renilla reference signal, replicate 1 | Renilla reference signal, replicate 2 | activity call |
| --- | --- | --- | --- | --- | --- | --- |
| CG3748 | 1 | 69336 | 44316 | 1398 | 4163 | inactive |
| CG10730 | 1 | 96864 | 67889 | 2816 | 5889 | inactive |
